The record followed here is the supplement of paper PMC7666118.

Chains of the proteins cited; added tags and fusions are not shown. Lines headed by an entry give the natural chain unless they say otherwise; changes in a name come on top.
UniProt O43818: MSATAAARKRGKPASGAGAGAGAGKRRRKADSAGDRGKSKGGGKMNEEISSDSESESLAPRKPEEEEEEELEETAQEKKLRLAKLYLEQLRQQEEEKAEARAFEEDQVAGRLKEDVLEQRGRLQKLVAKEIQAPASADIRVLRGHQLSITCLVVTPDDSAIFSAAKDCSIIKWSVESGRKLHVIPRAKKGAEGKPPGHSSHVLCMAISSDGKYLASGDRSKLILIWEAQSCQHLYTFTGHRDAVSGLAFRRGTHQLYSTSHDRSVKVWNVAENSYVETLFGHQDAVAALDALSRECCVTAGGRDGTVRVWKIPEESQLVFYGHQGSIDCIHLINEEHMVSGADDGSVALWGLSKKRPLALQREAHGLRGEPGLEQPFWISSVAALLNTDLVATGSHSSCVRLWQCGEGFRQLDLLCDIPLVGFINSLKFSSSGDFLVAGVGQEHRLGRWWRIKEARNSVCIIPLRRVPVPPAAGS
UniProt P18827: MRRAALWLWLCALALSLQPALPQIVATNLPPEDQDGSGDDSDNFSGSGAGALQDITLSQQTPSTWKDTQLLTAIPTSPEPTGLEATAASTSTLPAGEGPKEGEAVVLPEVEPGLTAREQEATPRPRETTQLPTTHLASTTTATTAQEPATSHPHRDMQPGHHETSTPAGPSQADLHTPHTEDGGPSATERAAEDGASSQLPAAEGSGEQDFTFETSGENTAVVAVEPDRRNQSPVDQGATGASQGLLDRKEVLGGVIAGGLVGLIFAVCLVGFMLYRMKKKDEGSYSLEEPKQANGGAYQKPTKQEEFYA
UniProt Q86VV8: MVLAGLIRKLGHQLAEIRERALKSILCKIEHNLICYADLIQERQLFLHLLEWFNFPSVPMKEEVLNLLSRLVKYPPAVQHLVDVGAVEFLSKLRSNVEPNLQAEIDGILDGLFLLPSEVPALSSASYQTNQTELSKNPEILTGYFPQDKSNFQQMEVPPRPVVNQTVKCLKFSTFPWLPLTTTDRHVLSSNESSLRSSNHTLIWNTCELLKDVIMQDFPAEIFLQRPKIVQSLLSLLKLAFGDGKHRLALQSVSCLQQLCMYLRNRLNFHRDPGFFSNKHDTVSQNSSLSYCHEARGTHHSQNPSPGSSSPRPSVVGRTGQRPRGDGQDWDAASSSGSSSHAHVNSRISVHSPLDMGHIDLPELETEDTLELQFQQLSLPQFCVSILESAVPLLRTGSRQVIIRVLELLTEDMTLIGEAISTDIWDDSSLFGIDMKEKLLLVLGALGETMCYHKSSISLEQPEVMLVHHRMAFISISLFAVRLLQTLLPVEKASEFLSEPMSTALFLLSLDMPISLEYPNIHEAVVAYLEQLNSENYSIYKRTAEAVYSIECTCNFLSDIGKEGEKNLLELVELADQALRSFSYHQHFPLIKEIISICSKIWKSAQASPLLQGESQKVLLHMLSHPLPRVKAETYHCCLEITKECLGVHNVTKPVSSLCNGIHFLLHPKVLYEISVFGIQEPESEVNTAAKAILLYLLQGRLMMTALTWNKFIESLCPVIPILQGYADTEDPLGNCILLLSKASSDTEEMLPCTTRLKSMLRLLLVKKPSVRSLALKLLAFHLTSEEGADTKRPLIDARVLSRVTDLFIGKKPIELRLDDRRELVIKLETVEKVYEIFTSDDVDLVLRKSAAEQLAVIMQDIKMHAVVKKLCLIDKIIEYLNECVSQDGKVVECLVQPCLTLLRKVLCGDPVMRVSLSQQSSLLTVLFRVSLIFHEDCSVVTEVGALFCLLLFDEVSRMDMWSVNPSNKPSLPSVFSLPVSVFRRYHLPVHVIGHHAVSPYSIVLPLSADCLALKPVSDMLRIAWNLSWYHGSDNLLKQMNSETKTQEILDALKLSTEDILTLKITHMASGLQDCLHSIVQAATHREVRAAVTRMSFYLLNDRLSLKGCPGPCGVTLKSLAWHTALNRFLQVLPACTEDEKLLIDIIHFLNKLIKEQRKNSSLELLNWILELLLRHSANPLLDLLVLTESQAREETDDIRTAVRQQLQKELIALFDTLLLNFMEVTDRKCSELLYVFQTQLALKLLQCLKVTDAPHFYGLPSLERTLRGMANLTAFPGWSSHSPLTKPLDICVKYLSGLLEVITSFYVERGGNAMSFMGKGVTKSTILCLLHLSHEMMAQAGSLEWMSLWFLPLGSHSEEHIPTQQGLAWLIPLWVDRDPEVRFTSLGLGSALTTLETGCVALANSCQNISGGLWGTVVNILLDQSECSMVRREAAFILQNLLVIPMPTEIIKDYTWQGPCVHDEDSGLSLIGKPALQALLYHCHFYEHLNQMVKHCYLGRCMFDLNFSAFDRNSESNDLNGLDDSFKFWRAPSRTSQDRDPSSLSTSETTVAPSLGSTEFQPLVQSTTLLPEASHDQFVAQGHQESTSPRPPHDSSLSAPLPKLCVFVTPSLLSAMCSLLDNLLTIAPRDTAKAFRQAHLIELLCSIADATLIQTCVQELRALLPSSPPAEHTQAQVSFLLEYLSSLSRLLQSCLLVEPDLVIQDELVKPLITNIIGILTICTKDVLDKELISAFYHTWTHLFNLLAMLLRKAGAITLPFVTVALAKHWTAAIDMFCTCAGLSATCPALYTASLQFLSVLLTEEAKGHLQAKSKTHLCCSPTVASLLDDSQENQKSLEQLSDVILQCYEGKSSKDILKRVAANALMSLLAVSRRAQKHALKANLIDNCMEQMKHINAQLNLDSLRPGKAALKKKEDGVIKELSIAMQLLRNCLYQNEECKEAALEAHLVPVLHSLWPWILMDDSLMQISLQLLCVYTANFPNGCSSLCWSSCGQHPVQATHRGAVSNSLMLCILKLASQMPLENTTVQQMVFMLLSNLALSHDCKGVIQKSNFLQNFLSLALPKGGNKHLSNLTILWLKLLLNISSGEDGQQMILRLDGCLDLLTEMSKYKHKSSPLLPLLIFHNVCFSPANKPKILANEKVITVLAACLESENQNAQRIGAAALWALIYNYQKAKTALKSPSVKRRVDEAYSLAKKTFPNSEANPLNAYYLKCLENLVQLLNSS
UniProt Q96AT9: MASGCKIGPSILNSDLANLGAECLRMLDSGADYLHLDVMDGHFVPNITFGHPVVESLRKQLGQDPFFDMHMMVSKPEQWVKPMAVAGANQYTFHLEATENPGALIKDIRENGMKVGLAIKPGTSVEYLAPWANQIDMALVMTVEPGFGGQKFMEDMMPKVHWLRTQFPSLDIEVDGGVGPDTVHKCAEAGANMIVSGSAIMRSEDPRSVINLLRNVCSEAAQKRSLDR
UniProt Q9BRK5: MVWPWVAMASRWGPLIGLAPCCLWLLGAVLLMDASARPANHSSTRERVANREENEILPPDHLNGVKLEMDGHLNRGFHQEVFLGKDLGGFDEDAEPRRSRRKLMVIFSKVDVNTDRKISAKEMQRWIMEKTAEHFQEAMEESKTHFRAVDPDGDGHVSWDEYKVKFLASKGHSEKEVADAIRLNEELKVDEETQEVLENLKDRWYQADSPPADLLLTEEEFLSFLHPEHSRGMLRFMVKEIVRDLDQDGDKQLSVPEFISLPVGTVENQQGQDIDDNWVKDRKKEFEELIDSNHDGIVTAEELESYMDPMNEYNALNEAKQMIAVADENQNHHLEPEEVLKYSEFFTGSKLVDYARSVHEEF
UniProt O60942: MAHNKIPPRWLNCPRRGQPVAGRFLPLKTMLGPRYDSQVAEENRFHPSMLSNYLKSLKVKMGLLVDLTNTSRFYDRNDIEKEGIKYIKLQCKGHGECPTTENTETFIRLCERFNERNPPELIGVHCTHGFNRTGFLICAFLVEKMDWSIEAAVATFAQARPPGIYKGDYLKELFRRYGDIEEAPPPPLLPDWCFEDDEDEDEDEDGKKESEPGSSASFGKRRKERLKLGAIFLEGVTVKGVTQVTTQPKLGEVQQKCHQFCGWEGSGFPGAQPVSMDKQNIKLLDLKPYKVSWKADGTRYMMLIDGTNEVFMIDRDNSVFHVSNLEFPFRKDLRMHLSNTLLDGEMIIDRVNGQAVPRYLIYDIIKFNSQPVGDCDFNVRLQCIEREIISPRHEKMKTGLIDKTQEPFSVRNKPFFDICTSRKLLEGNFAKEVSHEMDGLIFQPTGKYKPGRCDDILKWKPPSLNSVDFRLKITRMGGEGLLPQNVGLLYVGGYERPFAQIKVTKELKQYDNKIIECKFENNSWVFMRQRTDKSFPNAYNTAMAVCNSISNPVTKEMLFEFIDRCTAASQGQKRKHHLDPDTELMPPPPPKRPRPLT
UniProt P25815: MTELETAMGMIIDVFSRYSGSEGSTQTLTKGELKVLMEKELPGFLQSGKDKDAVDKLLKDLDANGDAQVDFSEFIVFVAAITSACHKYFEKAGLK
UniProt Q13950, whole entry: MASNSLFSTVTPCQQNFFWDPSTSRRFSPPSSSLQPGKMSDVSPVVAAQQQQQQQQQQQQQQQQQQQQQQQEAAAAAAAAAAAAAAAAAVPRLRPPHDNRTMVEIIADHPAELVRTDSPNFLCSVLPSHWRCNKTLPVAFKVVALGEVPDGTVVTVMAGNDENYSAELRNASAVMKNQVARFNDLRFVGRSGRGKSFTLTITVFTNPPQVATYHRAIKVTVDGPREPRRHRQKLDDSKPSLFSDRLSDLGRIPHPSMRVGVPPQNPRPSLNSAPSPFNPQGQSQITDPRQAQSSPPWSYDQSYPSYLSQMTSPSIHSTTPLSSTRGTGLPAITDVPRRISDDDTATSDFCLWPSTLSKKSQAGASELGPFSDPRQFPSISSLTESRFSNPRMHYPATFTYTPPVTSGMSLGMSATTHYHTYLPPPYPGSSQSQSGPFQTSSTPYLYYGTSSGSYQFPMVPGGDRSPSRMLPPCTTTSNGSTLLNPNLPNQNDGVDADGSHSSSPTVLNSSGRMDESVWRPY
UniProt P55735: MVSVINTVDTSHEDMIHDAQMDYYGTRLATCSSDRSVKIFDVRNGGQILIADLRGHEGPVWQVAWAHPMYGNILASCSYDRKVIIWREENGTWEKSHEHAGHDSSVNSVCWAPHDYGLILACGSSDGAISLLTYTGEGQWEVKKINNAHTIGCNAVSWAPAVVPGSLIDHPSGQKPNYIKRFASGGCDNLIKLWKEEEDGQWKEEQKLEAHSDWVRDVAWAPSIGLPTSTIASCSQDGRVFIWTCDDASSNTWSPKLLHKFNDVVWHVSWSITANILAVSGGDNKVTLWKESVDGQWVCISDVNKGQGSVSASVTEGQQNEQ
UniProt Q5PRF9: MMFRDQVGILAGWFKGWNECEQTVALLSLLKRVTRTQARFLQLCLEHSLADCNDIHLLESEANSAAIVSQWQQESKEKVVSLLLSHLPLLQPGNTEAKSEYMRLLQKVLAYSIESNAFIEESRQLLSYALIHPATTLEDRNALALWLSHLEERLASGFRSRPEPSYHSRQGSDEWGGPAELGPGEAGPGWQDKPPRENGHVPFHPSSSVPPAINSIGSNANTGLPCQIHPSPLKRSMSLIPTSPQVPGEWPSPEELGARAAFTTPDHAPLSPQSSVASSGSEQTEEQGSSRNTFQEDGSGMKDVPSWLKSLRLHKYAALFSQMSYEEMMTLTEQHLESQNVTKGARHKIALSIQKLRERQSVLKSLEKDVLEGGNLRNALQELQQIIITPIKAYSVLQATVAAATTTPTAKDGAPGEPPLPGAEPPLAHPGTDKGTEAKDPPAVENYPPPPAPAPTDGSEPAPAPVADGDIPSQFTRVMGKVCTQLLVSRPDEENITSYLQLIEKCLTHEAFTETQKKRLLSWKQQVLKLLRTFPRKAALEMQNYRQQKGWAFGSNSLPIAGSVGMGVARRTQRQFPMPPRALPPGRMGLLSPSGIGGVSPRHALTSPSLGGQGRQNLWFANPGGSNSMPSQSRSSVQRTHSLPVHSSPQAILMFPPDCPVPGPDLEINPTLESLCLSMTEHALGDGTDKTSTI
UniProt P04844: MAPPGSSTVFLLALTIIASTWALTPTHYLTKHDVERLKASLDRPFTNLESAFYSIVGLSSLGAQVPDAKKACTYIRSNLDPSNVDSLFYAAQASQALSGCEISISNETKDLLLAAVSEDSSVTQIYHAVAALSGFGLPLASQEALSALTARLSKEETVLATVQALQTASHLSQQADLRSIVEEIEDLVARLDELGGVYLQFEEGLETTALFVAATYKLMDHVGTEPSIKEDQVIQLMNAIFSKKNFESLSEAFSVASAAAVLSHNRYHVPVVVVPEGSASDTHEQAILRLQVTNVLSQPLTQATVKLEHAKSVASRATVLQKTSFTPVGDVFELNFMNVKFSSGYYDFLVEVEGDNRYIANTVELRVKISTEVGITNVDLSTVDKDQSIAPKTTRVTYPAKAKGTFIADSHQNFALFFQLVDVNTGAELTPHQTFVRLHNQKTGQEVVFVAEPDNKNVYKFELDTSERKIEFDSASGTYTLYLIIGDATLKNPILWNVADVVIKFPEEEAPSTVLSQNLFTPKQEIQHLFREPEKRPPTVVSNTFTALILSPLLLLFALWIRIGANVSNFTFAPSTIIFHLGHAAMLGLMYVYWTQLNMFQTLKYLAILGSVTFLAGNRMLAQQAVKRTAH

Some of the results follow.

Compound in the assay: COc1ccc(Cn2ccc3cc(C)c(C(=O)NO)cc32)cc1
Kind of assay: dose-dependent thermal stabilisation call (2D-TPP, DLPTP, 10% FDR) (binary (1 = stabilised)); higher = stabilised by the compound. The settings on record: system: HL-60 intact cells; concentration range 0.04-10 µM. The protocol:
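2D thermal proteome profiling in intact HL-60 cells treated with BRD-3811 (0, 0.04, 0.29, 2, 10 uM) for 90 min at 37 C, then heated 3 min at one of 12 temperatures (42-63.9 C). Soluble protein was quantified by TMT10 MS. The value is the DLPTP call of the paper: dose-dependent thermal stabilisation over all temperatures at 10% FDR (F-test of a dose-response against a flat model); one experiment, one call per tested protein.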
On to RPRD1B (UniProt Q9NQG5), for which the “dose-dependent thermal stabilisation call” value is inactive: 0.

Regarding RPL7 (UniProt P18124), the “dose-dependent thermal stabilisation call” value is inactive: 0.

In the case of RPL5 (UniProt P46777), the “dose-dependent thermal stabilisation call” value is inactive: 0.

Consider RPS14 (UniProt P62263), for which the “dose-dependent thermal stabilisation call” value was inactive: 0.

Turning to RRP9 (UniProt O43818), the “dose-dependent thermal stabilisation call” value was inactive: 0.

Regarding RP11-345P4 4, the “dose-dependent thermal stabilisation call” value is inactive: 0.

As for RREB1 (UniProt Q92766), the “dose-dependent thermal stabilisation call” value was inactive: 0.

Regarding SERBP1 (UniProt Q8NC51), the “dose-dependent thermal stabilisation call” value is inactive: 0.

In the case of SDC1 (UniProt P18827), the “dose-dependent thermal stabilisation call” value is inactive: 0.

As to RPRD2 (UniProt Q5VT52), the “dose-dependent thermal stabilisation call” value was inactive: 0.

Regarding RPL29 (UniProt P47914), the “dose-dependent thermal stabilisation call” value is inactive: 0.

RPL3 (UniProt P39023): the “dose-dependent thermal stabilisation call” value is inactive: 0.

On to RTTN (UniProt Q86VV8), for which the “dose-dependent thermal stabilisation call” value is inactive: 0.

Regarding RPE (UniProt Q96AT9), the “dose-dependent thermal stabilisation call” value was inactive: 0.

As to SDAD1 (UniProt Q9NVU7), the “dose-dependent thermal stabilisation call” value is inactive: 0.

With SDF4 (UniProt Q9BRK5), the “dose-dependent thermal stabilisation call” value is inactive: 0.

Take ROCK1 (UniProt Q13464): the “dose-dependent thermal stabilisation call” value was inactive: 0.

Turning to RNGTT (UniProt O60942), the “dose-dependent thermal stabilisation call” value was inactive: 0.

In the case of S100P (UniProt P25815), the “dose-dependent thermal stabilisation call” value was inactive: 0.

With SEPT9 (UniProt Q9UHD8), the “dose-dependent thermal stabilisation call” value was inactive: 0.

Turning to SART3 (UniProt Q15020), the “dose-dependent thermal stabilisation call” value was inactive: 0.

In the case of RUNX2 (UniProt Q13950), the “dose-dependent thermal stabilisation call” value was inactive: 0.

With SEC13 (UniProt P55735), the “dose-dependent thermal stabilisation call” value was inactive: 0.

Turning to SAMD4B (UniProt Q5PRF9), the “dose-dependent thermal stabilisation call” value is inactive: 0.

Regarding RPS19 (UniProt P39019), the “dose-dependent thermal stabilisation call” value is inactive: 0.

With RPS15A (UniProt P62244), the “dose-dependent thermal stabilisation call” value was inactive: 0.

For RPN2 (UniProt P04844), the “dose-dependent thermal stabilisation call” value is inactive: 0.
